Measurements taken from the supplement of paper PMC12819154, “High-throughput peptide-centric local stability assay extends protein–ligand identification to membrane proteins, tissues and bacteria” (Nature Structural & Molecular Biology, 2025).
The other results are listed elsewhere or left out. Small differences around the control level are noise.

By UniProt entry, the sequences of proteins in these tests, tags left out. Where a name states a change or a piece, a line headed by the entry shows the natural chain unless it says otherwise.
UniProt Q14677: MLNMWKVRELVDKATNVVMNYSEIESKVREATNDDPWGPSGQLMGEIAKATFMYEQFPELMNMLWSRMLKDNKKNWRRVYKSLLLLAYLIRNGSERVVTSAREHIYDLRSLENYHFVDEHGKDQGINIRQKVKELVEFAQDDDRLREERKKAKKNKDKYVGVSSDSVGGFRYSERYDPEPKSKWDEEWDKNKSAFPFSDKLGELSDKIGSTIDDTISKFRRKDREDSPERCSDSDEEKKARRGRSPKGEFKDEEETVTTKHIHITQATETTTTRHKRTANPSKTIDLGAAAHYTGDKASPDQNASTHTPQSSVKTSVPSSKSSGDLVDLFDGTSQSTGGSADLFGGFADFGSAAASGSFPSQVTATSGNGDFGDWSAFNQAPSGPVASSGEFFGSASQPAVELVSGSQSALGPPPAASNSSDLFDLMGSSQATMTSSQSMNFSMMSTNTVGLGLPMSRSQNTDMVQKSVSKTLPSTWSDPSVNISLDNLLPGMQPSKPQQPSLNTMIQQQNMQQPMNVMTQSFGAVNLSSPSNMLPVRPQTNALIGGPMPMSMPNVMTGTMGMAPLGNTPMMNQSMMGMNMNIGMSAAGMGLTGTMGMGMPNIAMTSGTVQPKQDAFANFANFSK
UniProt Q14186: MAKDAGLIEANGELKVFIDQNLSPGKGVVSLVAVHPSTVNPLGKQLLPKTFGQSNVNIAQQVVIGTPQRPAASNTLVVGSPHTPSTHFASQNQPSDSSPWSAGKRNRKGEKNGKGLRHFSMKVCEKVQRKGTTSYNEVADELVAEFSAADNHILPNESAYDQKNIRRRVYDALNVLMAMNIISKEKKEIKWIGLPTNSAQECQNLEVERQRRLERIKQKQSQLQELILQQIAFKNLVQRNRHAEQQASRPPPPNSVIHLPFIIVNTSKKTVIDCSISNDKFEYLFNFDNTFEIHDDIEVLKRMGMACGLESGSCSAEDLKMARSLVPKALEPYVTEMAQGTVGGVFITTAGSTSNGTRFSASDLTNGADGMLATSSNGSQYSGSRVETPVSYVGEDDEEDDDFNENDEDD
UniProt Q13347, whole entry: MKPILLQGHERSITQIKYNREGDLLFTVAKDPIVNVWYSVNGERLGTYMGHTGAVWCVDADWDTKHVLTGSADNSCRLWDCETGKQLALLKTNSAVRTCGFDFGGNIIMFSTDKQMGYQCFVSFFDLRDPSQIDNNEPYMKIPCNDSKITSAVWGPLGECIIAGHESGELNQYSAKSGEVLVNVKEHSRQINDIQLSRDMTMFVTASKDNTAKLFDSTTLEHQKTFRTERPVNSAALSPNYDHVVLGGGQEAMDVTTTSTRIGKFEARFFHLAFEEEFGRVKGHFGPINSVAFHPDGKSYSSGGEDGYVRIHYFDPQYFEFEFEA
UniProt Q14376: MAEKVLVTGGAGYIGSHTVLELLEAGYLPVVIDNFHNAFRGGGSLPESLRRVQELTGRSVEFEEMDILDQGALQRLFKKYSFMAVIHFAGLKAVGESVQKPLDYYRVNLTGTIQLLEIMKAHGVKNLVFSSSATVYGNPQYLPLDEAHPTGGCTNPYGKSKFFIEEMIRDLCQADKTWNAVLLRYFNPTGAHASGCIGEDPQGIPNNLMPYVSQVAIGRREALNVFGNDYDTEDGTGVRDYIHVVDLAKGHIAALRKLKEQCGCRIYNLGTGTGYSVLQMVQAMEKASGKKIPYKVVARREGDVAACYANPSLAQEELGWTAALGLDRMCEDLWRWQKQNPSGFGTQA
UniProt Q14247: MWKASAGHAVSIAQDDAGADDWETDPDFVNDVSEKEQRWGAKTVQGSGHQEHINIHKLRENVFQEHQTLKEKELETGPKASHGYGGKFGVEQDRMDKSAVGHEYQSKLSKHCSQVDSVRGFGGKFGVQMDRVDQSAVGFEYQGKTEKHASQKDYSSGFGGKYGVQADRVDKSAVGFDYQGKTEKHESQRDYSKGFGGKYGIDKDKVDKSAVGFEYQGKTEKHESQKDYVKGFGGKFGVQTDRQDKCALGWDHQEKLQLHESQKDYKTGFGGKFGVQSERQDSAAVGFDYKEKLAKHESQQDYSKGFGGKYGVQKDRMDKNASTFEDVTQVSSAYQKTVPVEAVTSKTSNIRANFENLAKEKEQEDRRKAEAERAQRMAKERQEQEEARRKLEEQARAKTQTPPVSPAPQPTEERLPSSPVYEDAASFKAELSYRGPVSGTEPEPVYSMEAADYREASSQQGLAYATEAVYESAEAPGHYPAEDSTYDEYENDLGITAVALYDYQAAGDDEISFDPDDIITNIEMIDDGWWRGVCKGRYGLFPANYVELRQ
UniProt Q14145, whole entry: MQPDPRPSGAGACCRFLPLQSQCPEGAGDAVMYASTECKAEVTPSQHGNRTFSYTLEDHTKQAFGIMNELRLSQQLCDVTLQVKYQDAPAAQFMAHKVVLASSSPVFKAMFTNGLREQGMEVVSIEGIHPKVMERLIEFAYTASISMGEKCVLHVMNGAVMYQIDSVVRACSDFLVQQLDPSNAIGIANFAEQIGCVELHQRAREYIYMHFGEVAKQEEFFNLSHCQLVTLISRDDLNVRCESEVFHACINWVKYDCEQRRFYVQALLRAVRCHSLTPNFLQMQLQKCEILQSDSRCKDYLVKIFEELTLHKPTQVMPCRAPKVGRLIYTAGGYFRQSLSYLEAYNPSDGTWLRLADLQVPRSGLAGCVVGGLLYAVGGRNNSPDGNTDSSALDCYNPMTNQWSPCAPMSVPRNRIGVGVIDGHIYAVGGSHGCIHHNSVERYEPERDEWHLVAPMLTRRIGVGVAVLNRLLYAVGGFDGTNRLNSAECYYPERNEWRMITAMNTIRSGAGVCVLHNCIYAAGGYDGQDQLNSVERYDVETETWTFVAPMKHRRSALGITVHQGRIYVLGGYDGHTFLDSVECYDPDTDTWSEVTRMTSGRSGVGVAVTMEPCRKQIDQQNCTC
UniProt Q13555: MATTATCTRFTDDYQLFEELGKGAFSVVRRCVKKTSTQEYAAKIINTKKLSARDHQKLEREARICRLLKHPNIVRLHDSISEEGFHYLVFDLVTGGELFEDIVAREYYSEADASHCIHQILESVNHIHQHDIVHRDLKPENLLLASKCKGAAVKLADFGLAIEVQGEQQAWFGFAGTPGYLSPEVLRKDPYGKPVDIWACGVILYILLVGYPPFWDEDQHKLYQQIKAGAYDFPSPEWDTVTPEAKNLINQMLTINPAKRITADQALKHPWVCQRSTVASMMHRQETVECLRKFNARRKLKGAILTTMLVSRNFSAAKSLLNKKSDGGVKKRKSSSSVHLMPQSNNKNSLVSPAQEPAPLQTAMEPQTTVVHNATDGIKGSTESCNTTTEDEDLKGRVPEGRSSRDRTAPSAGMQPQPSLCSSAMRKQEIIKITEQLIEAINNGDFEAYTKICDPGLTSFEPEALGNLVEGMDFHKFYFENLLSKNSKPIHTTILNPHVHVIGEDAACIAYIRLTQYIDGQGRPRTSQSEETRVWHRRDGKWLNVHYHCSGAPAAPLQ

Compound: Cc1nc(Nc2ncc(C(=O)Nc3c(C)cccc3Cl)s2)cc(N2CCN(CCO)CC2)n1 [dasatinib]
Assay: log2 fold change of tryptic peptide abundance, ligand vs vehicle (limited proteolysis) (log2 ratio); higher = more trypsin-susceptible (destabilized)
Conditions: ligand concentration: 5 uM; sample: K562 cleared lysate

Row | Target | log2 fold change
1 | PWP1 (peptide sequence: ERLVLGSAR, peptide start residue: 474) (UniProt Q13610) | 0.557
2 | CLINT1 (peptide sequence: GEFKDEEETVTTK, peptide start residue: 248) (UniProt Q14677) | -0.224
3 | TFDP1 (peptide sequence: DAGLIEANGELK, peptide start residue: 4) (UniProt Q14186) | -0.0643
4 | EIF3I (peptide sequence: LWDCETGK, peptide start residue: 78) (UniProt Q13347) | -0.13
5 | GALE (peptide sequence: GGGSLPESLR, peptide start residue: 41) (UniProt Q14376) | -0.285
6 | CTTN (peptide sequence: ERQEQEEARR, peptide start residue: 380) (UniProt Q14247) | 0.151
7 | KEAP1 (peptide sequence: QAFGIMNELR, peptide start residue: 62) (UniProt Q14145) | -0.242
8 | CAMK2G (peptide sequence: KTSTQEYAAK, peptide start residue: 34) (UniProt Q13555) | -0.316
